# Reference: PubChem BioAssay AID1259308 (NCATS, 2017)
# Assay: 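Knock-downs that increase output of a recombinant reporter protein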 (primary screen)
# Cells: human HEK293 embryonic kidney cells stably expressing firefly luciferase (HEK-CMV-Luc2-Hygro)
# Knock-down reagent: single siRNA against human genes, 0.8 pmol siRNA per well
# Timing: 72 h
# Read-out: 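Luciferase light (ONE-Glo) measured on one replicate plate set and viability (CellTiter-Glo) on the other, scaled to a negative control siRNA, with robust z-scores and luciferase per cell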
# Scale: total luciferase, z-score and total luciferase, % of control: higher = more reporter protein produced; luciferase per cell, z-score: higher = more reporter output per viable cell; viable cells, % of control: higher = more viable cells
# Rule for the call: 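Active when the median/MAD z-score for overall luciferase is greater than 3; a gene was taken forward for validation with new siRNAs if at least two of its three siRNAs passed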
# Meaning of the calls: active = raised luciferase; inactive = no rise
# In all, the deposit lists about 59,000 reagents; this is an unselected part. About 1,510 of them (2.6%) count as active. 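Calls use total luciferase alone and ignore viability, so some active siRNAs may act by altering cell number.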
gene knocked down,PubChem SID,"total luciferase, z-score","total luciferase, % of control","luciferase per cell, z-score","viable cells, % of control",activity call
ANGPTL1 (GeneID 9068),SID160721394,-0.0564,80.8,-0.308,97.9,inactive
ANGPTL1 (GeneID 9068),SID160721395,0.901,99.8,0.253,104,inactive
ANGPTL1 (GeneID 9068),SID160721396,0.621,94.2,0.286,97.7,inactive
CLDN7 (GeneID 1366),SID160730617,0.257,87,0.933,76,inactive
CLDN7 (GeneID 1366),SID160747488,0.882,99.4,0.792,90.2,inactive
CLDN7 (GeneID 1366),SID160747497,0.297,87.8,-0.0672,99.9,inactive
H4C14 (GeneID 8370),SID160724171,4.78,177,3,89.7,active
H4C14 (GeneID 8370),SID160724172,-1.21,57.9,-0.979,83.8,inactive
H4C14 (GeneID 8370),SID160735054,0.139,84.6,-0.452,107,inactive
IBTK (GeneID 25998),SID160737414,-0.447,73,-0.0711,83.1,inactive
IBTK (GeneID 25998),SID160737415,-0.188,78.1,-0.553,101,inactive
IBTK (GeneID 25998),SID160737418,-0.712,67.7,-1.4,109,inactive
BTN2A2 (GeneID 10385),SID160728299,1.4,110,1.89,74.7,inactive
BTN2A2 (GeneID 10385),SID160728300,0.39,89.6,0.445,89.1,inactive
BTN2A2 (GeneID 10385),SID160728301,-0.525,71.5,-1.07,106,inactive
BMAL2 (GeneID 56938),SID160745343,-0.185,78.2,-0.424,97.7,inactive
BMAL2 (GeneID 56938),SID160745344,-0.681,68.3,-0.259,81.8,inactive
BMAL2 (GeneID 56938),SID160745345,-0.701,68,-0.731,92,inactive
LATS1 (GeneID 9113),SID160721498,-0.749,67,-0.754,91.3,inactive
LATS1 (GeneID 9113),SID160721499,0.162,85.1,-0.0571,96.5,inactive
LATS1 (GeneID 9113),SID160721500,-0.526,71.4,-0.531,91.8,inactive
GSPT1 (GeneID 2935),SID160774633,0.0869,83.6,0.298,86.4,inactive
GSPT1 (GeneID 2935),SID160774634,-0.728,67.4,-0.321,82,inactive
GSPT1 (GeneID 2935),SID160774635,-1.98,42.4,-1.86,77.5,inactive
